According to article PMC4044952:
These are yes or no findings as the source states them, for the method shown. In cells and extracts the contact can be indirect. Some binding calls cover weakened binding; strength is not graded here. Tags and fused reporters may be left off the sequences shown.

T1: Drosophila Mfn-myc (Mitofusin, also called Marf, CG3869, fused to a myc tag) (Drosophila) (UniProt Q7YU24)
T1 sequence: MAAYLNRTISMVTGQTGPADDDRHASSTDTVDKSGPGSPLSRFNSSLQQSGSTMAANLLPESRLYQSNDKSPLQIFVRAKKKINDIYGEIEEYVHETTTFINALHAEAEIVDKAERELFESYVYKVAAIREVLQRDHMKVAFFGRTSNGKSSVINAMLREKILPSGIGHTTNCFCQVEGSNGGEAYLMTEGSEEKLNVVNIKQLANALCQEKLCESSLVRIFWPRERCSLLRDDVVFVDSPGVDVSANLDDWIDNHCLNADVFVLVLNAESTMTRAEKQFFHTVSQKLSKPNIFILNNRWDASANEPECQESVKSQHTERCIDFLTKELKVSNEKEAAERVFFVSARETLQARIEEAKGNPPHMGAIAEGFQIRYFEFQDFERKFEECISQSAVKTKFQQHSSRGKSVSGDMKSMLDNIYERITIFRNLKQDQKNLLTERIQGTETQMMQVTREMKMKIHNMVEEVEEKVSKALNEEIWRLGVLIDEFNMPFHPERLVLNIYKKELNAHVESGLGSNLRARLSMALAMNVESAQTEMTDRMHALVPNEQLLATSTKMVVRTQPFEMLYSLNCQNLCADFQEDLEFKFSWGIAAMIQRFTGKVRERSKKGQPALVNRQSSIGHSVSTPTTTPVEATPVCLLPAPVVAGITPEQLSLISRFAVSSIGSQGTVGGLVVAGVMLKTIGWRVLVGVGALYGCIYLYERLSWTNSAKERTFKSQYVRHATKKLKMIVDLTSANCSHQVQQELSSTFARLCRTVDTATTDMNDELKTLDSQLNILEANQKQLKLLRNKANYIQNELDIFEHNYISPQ

T2: Drosophila HA-Parkin (Drosophila) (UniProt Q7KTX7)
T2 sequence: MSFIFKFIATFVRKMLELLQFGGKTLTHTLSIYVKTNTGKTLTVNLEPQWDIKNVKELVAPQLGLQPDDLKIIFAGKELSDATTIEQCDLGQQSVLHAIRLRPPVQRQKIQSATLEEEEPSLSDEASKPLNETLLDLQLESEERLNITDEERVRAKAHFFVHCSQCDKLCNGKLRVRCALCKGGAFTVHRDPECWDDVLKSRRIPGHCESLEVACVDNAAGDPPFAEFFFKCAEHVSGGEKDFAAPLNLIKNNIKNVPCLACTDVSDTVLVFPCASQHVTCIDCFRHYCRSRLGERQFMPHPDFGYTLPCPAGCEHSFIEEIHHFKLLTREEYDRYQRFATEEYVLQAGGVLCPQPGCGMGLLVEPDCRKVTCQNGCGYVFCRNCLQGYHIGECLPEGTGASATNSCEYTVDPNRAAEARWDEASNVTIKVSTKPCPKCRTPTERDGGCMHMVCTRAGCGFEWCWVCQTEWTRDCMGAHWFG

T3: Drosophila MUL1-GFP (Mitochondrial ubiquitin ligase 1, CG1134, fused to GFP) (Drosophila) (UniProt Q9VZJ9)
T3 sequence: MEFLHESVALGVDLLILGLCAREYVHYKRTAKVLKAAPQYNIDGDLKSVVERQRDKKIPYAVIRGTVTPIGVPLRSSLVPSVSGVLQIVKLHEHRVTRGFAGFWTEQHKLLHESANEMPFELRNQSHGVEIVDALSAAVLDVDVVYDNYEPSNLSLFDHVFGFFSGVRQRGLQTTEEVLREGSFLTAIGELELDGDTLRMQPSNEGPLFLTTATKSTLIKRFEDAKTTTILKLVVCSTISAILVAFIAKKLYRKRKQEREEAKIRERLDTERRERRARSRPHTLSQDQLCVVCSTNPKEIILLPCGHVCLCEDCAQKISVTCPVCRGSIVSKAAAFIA


Assays:
Experiment in all cases: co-IP; S2 cells transfected with the indicated constructs, lysed in RIPA buffer with protease inhibitors; immunoprecipitation with Dynabeads and antibodies to Myc or GFP (anti-HA also listed); Western blots probed with antibodies to GFP or Myc; input 2% of lysate
[1] = target: T1, Drosophila Mfn-myc (Mitofusin, also called Marf, CG3869, fused to a myc tag) (Drosophila)
[2] = target: T2, Drosophila HA-Parkin (Drosophila)
[3] = target: T3, Drosophila MUL1-GFP (Mitochondrial ubiquitin ligase 1, CG1134, fused to GFP) (Drosophila)

Binder | binding [1] | binding [2] | binding [3]
Drosophila MUL1-GFP (Mitochondrial ubiquitin ligase 1, CG1134, fused to GFP) (protein, UniProt Q9VZJ9 1-338) MEFLHESVALGVDLLILGLCAREYVHYKRTAKVLKAAPQYNIDGDLKSVVERQRDKKIPYAVIRGTVTPIGVPLRSSLVPSVSGVLQIVKLHEHRVTRGFAGFWTEQHKLLHESANEMPFELRNQSHGVEIVDALSAAVLDVDVVYDNYEPSNLSLFDHVFGFFSGVRQRGLQTTEEVLREGSFLTAIGELELDGDTLRMQPSNEGPLFLTTATKSTLIKRFEDAKTTTILKLVVCSTISAILVAFIAKKLYRKRKQEREEAKIRERLDTERRERRARSRPHTLSQDQLCVVCSTNPKEIILLPCGHVCLCEDCAQKISVTCPVCRGSIVSKAAAFIA | binds |  | 
Drosophila Mfn-myc (Mitofusin, also called Marf, CG3869, fused to a myc tag) (protein, UniProt Q7YU24 1-810) MAAYLNRTISMVTGQTGPADDDRHASSTDTVDKSGPGSPLSRFNSSLQQSGSTMAANLLPESRLYQSNDKSPLQIFVRAKKKINDIYGEIEEYVHETTTFINALHAEAEIVDKAERELFESYVYKVAAIREVLQRDHMKVAFFGRTSNGKSSVINAMLREKILPSGIGHTTNCFCQVEGSNGGEAYLMTEGSEEKLNVVNIKQLANALCQEKLCESSLVRIFWPRERCSLLRDDVVFVDSPGVDVSANLDDWIDNHCLNADVFVLVLNAESTMTRAEKQFFHTVSQKLSKPNIFILNNRWDASANEPECQESVKSQHTERCIDFLTKELKVSNEKEAAERVFFVSARETLQARIEEAKGNPPHMGAIAEGFQIRYFEFQDFERKFEECISQSAVKTKFQQHSSRGKSVSGDMKSMLDNIYERITIFRNLKQDQKNLLTERIQGTETQMMQVTREMKMKIHNMVEEVEEKVSKALNEEIWRLGVLIDEFNMPFHPERLVLNIYKKELNAHVESGLGSNLRARLSMALAMNVESAQTEMTDRMHALVPNEQLLATSTKMVVRTQPFEMLYSLNCQNLCADFQEDLEFKFSWGIAAMIQRFTGKVRERSKKGQPALVNRQSSIGHSVSTPTTTPVEATPVCLLPAPVVAGITPEQLSLISRFAVSSIGSQGTVGGLVVAGVMLKTIGWRVLVGVGALYGCIYLYERLSWTNSAKERTFKSQYVRHATKKLKMIVDLTSANCSHQVQQELSSTFARLCRTVDTATTDMNDELKTLDSQLNILEANQKQLKLLRNKANYIQNELDIFEHNYISPQ |  | binds | binds
